PubChem BioAssay AID504804 – Drosophila RNAi Screening Center – 2011
In all, the deposit lists about 19,000 reagents; below is a random part of those with a known target gene and a result. In the full data, 47 (0.25%) were called active. 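Signals are raw, not normalised; exact z-scores behind calls not deposited; actives needed confirmation, so some wells reaching 2 SD are inactive.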 Entries without a mark were called inactive. Names joined by + are all predicted targets of the reagent.

- Aim: 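Knock-downs shielding fly cells from apoptosis caused by DNA damage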 (primary screen)
- Cells: Drosophila Kc cells
- Knock-down reagent: long dsRNA against Drosophila genes, 0.5 µg dsRNA per well
- Duration: 96 h (48 h knock-down, then 48 h drug)
- Conditions: doxorubicin 5 µg/ml for 48 h, added 48 h after dsRNA
- Detection: 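Viability measured as cellular ATP by luminescence after 48 h knock-down then 48 h doxorubicin at 5 µg/ml; unnormalised plate counts for each replicate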
- Direction: raw ATP luminescence: higher = more viable cells, protection from doxorubicin
- Rule for the call: 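z-score of 2 or more over plate mean in both duplicates, retained only when retests and separate dsRNAs confirm the protection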

Which result is listed for CG32548 [DRSC19627]?
raw ATP luminescence, replicate 1: 3.96e5; raw ATP luminescence, replicate 2: 3.23e5

How did the screen score CG9590 [DRSC16506]?
raw ATP luminescence, replicate 1: 49207; raw ATP luminescence, replicate 2: 45730

What is on record for CG13526 [DRSC04168]?
raw ATP luminescence, replicate 1: 60603; raw ATP luminescence, replicate 2: 56167

With CG30334 [DRSC05345], what does the deposit list?
raw ATP luminescence, replicate 1: 71977; raw ATP luminescence, replicate 2: 93587

With CG11771 [DRSC14379], what does the deposit list?
raw ATP luminescence, replicate 1: 35483; raw ATP luminescence, replicate 2: 49423

With CG17344 [DRSC02607], what does the deposit list?
raw ATP luminescence, replicate 1: 51353; raw ATP luminescence, replicate 2: 51007

What did the screen give for CG9581 [DRSC20695]?
raw ATP luminescence, replicate 1: 1.96e5; raw ATP luminescence, replicate 2: 1.92e5

With RabGGTa (Rab geranylgeranyltransferase subunit alpha) [DRSC12189], how do the results read?
raw ATP luminescence, replicate 1: 43297; raw ATP luminescence, replicate 2: 41627

For 18w (18 wheeler) [DRSC05029], what does the deposit list?
raw ATP luminescence, replicate 1: 49043; raw ATP luminescence, replicate 2: 49000

For NdufA3 (NADH:ubiquinone oxidoreductase subunit A3) [DRSC18431], what was measured?
raw ATP luminescence, replicate 1: 2.95e5; raw ATP luminescence, replicate 2: 2.70e5

With CG5808 [DRSC14124], what does the deposit list?
raw ATP luminescence, replicate 1: 38110; raw ATP luminescence, replicate 2: 32163

How did the screen score CG13713 [DRSC08322]?
raw ATP luminescence, replicate 1: 82153; raw ATP luminescence, replicate 2: 99047

For SPR (Sex peptide receptor) [DRSC17390], what does the deposit list?
raw ATP luminescence, replicate 1: 2.67e5; raw ATP luminescence, replicate 2: 2.60e5

For SPR (Sex peptide receptor) [DRSC17886], what was measured?
raw ATP luminescence, replicate 1: 37500; raw ATP luminescence, replicate 2: 42890

For SPR (Sex peptide receptor) [DRSC18114], what does the deposit list?
raw ATP luminescence, replicate 1: 32990; raw ATP luminescence, replicate 2: 50990

What is on record for Rad9 [DRSC11263]?
raw ATP luminescence, replicate 1: 20507; raw ATP luminescence, replicate 2: 22610

What did the screen give for CG18810 [DRSC02701]?
raw ATP luminescence, replicate 1: 56280; raw ATP luminescence, replicate 2: 44950

What did the screen give for CG10116 [DRSC09700]?
raw ATP luminescence, replicate 1: 25407; raw ATP luminescence, replicate 2: 27653

For CG1894 [DRSC15396], what does the deposit list?
raw ATP luminescence, replicate 1: 57420; raw ATP luminescence, replicate 2: 51040

With AIMP1 (aaRS-interacting multifunctional protein 1) [DRSC07118], how do the results read?
raw ATP luminescence, replicate 1: 48807; raw ATP luminescence, replicate 2: 99100

For tyf (twenty-four) [DRSC18382], what does the deposit list?
raw ATP luminescence, replicate 1: 34130; raw ATP luminescence, replicate 2: 50660

For AP-1-2beta (Adaptor Protein complex 1/2, beta subunit) [DRSC19336], what does the deposit list?
raw ATP luminescence, replicate 1: 2.64e5; raw ATP luminescence, replicate 2: 2.32e5

What did the screen give for Cyp6a2 (Cytochrome P450 6a2) [DRSC05014]?
raw ATP luminescence, replicate 1: 56503; raw ATP luminescence, replicate 2: 90600

For Adk2 (Adenosine kinase 2) [DRSC09827], what does the deposit list?
raw ATP luminescence, replicate 1: 42177; raw ATP luminescence, replicate 2: 34403

Look-ups from above.
Under “raw ATP luminescence, replicate 1”, AP-1-2beta (Adaptor Protein complex 1/2, beta subunit) [DRSC19336] is entered as 2.64e5
For “raw ATP luminescence, replicate 1”, NdufA3 (NADH:ubiquinone oxidoreductase subunit A3) [DRSC18431] has 2.95e5
CG18810 [DRSC02701], raw ATP luminescence, replicate 2: 44950
SPR (Sex peptide receptor) [DRSC18114], raw ATP luminescence, replicate 2 → 50990
Result of CG32548 [DRSC19627] in “raw ATP luminescence, replicate 2”: 3.23e5

Next results follow.
With CG3163 [DRSC04341], what was measured?
raw ATP luminescence, replicate 1: 58093; raw ATP luminescence, replicate 2: 49277

How did the screen score Cyp6a8 (Cytochrome P450 6a8) [DRSC07384]?
raw ATP luminescence, replicate 1: 76407; raw ATP luminescence, replicate 2: 61770

What did the screen give for CG42397 [DRSC09147]?
raw ATP luminescence, replicate 1: 1.99e5; raw ATP luminescence, replicate 2: 1.48e5

What is on record for PGRP-LD + Pmi [DRSC10512]?
raw ATP luminescence, replicate 1: 56047; raw ATP luminescence, replicate 2: 67973

What is on record for PGRP-LD + Pmi [DRSC10513]?
raw ATP luminescence, replicate 1: 63477; raw ATP luminescence, replicate 2: 93253

With DZIP1 [DRSC14620], what was measured?
raw ATP luminescence, replicate 1: 75640; raw ATP luminescence, replicate 2: 53740

What is on record for CG12477 [DRSC09886]?
raw ATP luminescence, replicate 1: 37627; raw ATP luminescence, replicate 2: 27837

How did the screen score Cyp6d2 (Cytochrome P450 6d2) [DRSC04606]?
raw ATP luminescence, replicate 1: 70057; raw ATP luminescence, replicate 2: 46140

Which result is listed for CR42745 (retired record) [DRSC13756]?
raw ATP luminescence, replicate 1: 2.73e5; raw ATP luminescence, replicate 2: 2.73e5

For ppk17 (pickpocket 17) [DRSC02252], what was measured?
raw ATP luminescence, replicate 1: 48730; raw ATP luminescence, replicate 2: 54077

With Nsun5 (Nop2/Sun-like domain containing protein 5) [DRSC15835], what does the deposit list?
raw ATP luminescence, replicate 1: 56360; raw ATP luminescence, replicate 2: 60567

What is on record for Alp13 (Alkaline phosphatase 13) [DRSC15781]?
raw ATP luminescence, replicate 1: 51837; raw ATP luminescence, replicate 2: 47530
